Hit rate of the full screen: of about 53,000 sequences, about 3,700 (7%) were called active.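 The calls were made as follows: active = gene knockdowns whose robust z-score for IL-1 alpha signal is at least 2 or at most -2, so actives lie on both sides; inactive = the rest.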 The list shows a part of the results.

This experiment can be described thus: Components of the Cytosolic LPS Sensing Pathway: Gene Identification via Genome-wide siRNA Screen.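 Also: robust z of the log signal after scaling to non-targeting control siRNA wells of the plate.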 The settings on record: RAW264.7 macrophages, IL-1a HTRF, actives lie on both sides, screened at 100 nM (by protocol), cells primed 5 h with Pam3CSK4 first. Summed up:
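Three distinct siRNAs per gene were tested singly at 100 nM in RAW264.7 macrophages. Following Pam3CSK4 priming and 24 hour LipidA transfection, IL-1a secretion was read by HTRF.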
(In general: TR-FRET usually uses a lanthanide donor and a delayed reading to cut background.)
Turning to CCAUCAAGAGGUAUAAUCUTT against Flad1, the z-score was inactive: 1.75. Take “CCUAAGAUAGACUAAAUCGTT against 1700001G17Rik”: the z-score was inactive: 0.171. To GCAACCAUCCAACAACCUGTT against Prkca belongs inactive: 0.94; to GGCCAUCUGUGAAAAAUUCTT against Dhcr24, inactive: -1.06; to GCUCUUGUAAAUUUGUGAATT against Usp10, inactive: -0.331. Under GGAGCUAAGUCGAAGCUUCTT against Gmppa stands inactive: 0.0448; under GGUCCAUUUUUUGGUGUGCTT against BC051665, inactive: -0.46.

Regarding CCUGCCCUCUUUUAAAUAATT against Ap3s1, the z-score was inactive: -1.96.

In the case of GGAGACUAAUGAACAGAAATT against Fgd4, the z-score is inactive: 0.39.

In the case of GCUCUCUGAAAGAGUAUUGTT against Khdrbs2, the z-score was inactive: 0.963. Under GCCCAAUUGGCUUUUGUUATT against Olfr1305 stands inactive: 0.736; under CGGAGUAAACAAUACAGUCTT against Gnmt, active: 2.26.

Regarding CCUUUUAGCUCUGUGUAUUTT against Gldc, the z-score is inactive: -0.0983.

Take CGUGGAUUACCACCCUAAGTT against Klrc2: the z-score was inactive: -0.129. Under GGACGUGAAUGUGUUUGACTT against Cyp26b1 stands inactive: 0.795. GGCUUGGUGGGACAGAUAUTT against Ccdc51: the z-score was inactive: -1.82. To GGAGCAGGAAGUAUGAAUGTT against Gpr39 belongs inactive: -0.0371; to GGAGCAGUCUAUCUUUGGUTT against Dbn1, inactive: 1.3; to GGACAAUUGAAUACCUAGATT against Hadha, inactive: 0.151. To CCUGAGUCUCGGUUCACAATT against Kif12 belongs active: -2.13; to GGAUUAAGAAAGAAACAGGTT against Zfp438, inactive: -0.387. Under GGAAGCGUAUUACGAAAGATT against Prpf18 stands inactive: 0.565. As for GCUCAUGACCCAUAUGUGGTT against Cryaa, the z-score was inactive: -0.933.

In the case of GCGAGUUAUUUGGCUCCGATT against Pla2g4e, the z-score is inactive: -1.27.

GGAGGAGUUUGACUUCGACTT against Alox12: the z-score was inactive: -0.109. Under GGUUCGUCGCCUUUUAGGGTT against Alx4 stands active: 3.74. Take GGAAGGAAGGAAUAAAACUTT against Fitm2: the z-score is inactive: -0.981. As for ACAUACCCGUGAAUGGCUCTT against Ffar1, the z-score was inactive: -0.757.

As for GGUUGGAGUUCAACAGAUGTT against Ksr1, the z-score is inactive: 0.874.

Consider GGCGGGAGUACUAAAUGAATT against Eppk1, for which the z-score was inactive: 1.07. To CGGCAAUUCCAGAAAUGAUTT against Rcc1l belongs inactive: -1.67. To GCUUCAAACUAGUUCCAAATT against H1f8 belongs inactive: 1.65; to GCAGAUUCUCCGAUUACACTT against Fbxw8, inactive: -0.294; to GCAAUUAAGGUAGAGUCUGTT against Rassf1, inactive: -1.81.

For GGACAGCAUCCGAAAAGUGTT against Thbs1, the z-score was inactive: -1.47. To GGAAGACAAUAAGAAGUGGTT against Niban2 belongs inactive: -0.576; to CCUAUUUGGCCAUUAUCCATT against Atxn7l1, inactive: 0.848; to GGAGCUUACUACAAAGCUATT against Gnb4, inactive: 0.529. Regarding GAAGUCCACUGAACUUCUGTT against H3f3a, the z-score was inactive: 0.856.

As for GGAAGAGGUCUUGAUCCACTT against Klhl22, the z-score was inactive: -1. Consider GGAUGUAUGCCAAAGAAUUTT against Fmo5, for which the z-score was inactive: -0.0456.

Take GGUUUAAGAAAAAAGGAGCTT against Rab43: the z-score was inactive: -0.182. With GAAACUUAGGGAAACACUATT against Cux1, the z-score was inactive: 0.129.

With GGACUGAGGAGAGCAAUAUTT against Cts6, the z-score is inactive: -1.29. Consider GGGUUAAUGCAGCUCACGUTT against Lrrtm1, for which the z-score was inactive: 0.425. Under CCAUUCAUUUUUGAUGACCTT against Tlr3 stands inactive: -0.144; under GGUUUUAGACAUUCAGAACTT against Ago4, inactive: 0.408. Regarding GGAUGAUGAAAAAAAGAACTT against Fam228b, the z-score was inactive: -0.058. Under CGUGUUCUUGCUCAAGGAGTT against Rilp stands inactive: -0.229; under GGAGAGACGUAAGAGGCGATT against Zrsr2, inactive: 0.0858. To GCAGUCUUCUUAGCUAUAATT against Zkscan2 belongs inactive: -1.29; to CCGCAUUUCAGACAUAGGCTT against Olfr248, inactive: -0.729. Under CGAGUUCGGUAUGAGUGGATT against Clptm1 stands inactive: -0.858. In the case of GGGCAAUGAUUUAUACCAUTT against Atp5b, the z-score is inactive: 0.257. CGCGACAGAAUCAGUACAATT against Hnf4g: the z-score was active: 2.17.

For GGAGCAUCACUCUUAACAUTT against Krt71, the z-score was inactive: 1.58. To AGGAAAGAAAAUAUGCUGATT against Cox17 belongs inactive: 1.12; to GGACUCUUUUCUACGUGGATT against Klhl1, active: 2.54.

For GGACAGUAGUUCUUUAUCUTT against Gpalpp1, the z-score is inactive: -0.815. GGACGCAGACAGGACAAAATT against Parp2: the z-score is active: 2.16. To GGUGAAAUUUGUCAUGGUCTT against Trappc2l belongs inactive: -0.909; to GGGACAACACAUUAACUUATT against Uckl1, inactive: 1.41; to CCUUGUUGUUUGUCUCGACTT against Ern1, inactive: -1.21. To CCUGCUGGUAUAGAGUAUGTT against Eps8l2 belongs inactive: -0.172.

In the case of GGACUAGAAGAUCUACACUTT against Olfr67, the z-score is inactive: -0.921.

In the case of CGACCACAUUAUUGGGUUUTT against Senp8, the z-score was active: 2.62. Under CGCAGGUAUACAGGACUGCTT against Rhox8 stands active: 2.33. To GGAUACACUGAUACUAUACTT against Pwp2 belongs inactive: 0.403. In the case of GGGACUGUACUCAUUUCUATT against Rnf138rt1, the z-score is inactive: -0.67. To GCUGCUUGUUAAGCUUUUUTT against Nelfcd belongs inactive: -0.947. To CCCAAGUGGUAAGAUUGGUTT against Rps3 belongs inactive: 0.123; to GGAAGCAUUGAUUUUCAUCTT against Prok2, inactive: 1.82.

For CCCUUAGGGAGUGCUGUGATT against Gc, the z-score was inactive: -1.85. To GGAAUGGUAGGAAUUCUUCTT against Yipf5 belongs inactive: 0.418; to GGACCACAGGGUCAAUUUCTT against Icam5, inactive: -0.0684. Under CCAUACCGAUCAAAUUCCCTT against Pfn2 stands inactive: -0.596. Under GGGACAUGGGAAGAACUCUTT against Gpr87 stands inactive: -0.674.

Consider CCAGUAAGUUGCAUUCGAATT against Defb8, for which the z-score is inactive: 0.675. To GGAAAGGAAGAAGAAAUGATT against Rab13 belongs inactive: -0.578.

Consider GGCAGAAUAAUAAUCCACATT against Ovol1, for which the z-score was inactive: -0.0992. Take CCUAGGGUAUUCAAUCAUGTT against Nfya: the z-score is inactive: -0.908. To GGGUUUUUUUUUCCUUGAATT against Smndc1 belongs inactive: -0.313; to GCUAAGAACAUUCACAUAATT against Pon3, inactive: -0.293. To GCCUUUAGUUGGUUUAGUATT against Zfp799 belongs inactive: 0.0447; to GGAAGACGAAUUCUUAAGUTT against H2-M10.6, inactive: 0.0529. On to GGACCGUCUGUCCUUUGUCTT against Nectin2, for which the z-score is inactive: 0.618. Under CGUUGUCAUUCACAAGUGATT against Tmprss11e stands active: 3.02; under CGUACCAGAUGAGCUAAGUTT against Zfp513, active: 2.56. As to CCAUAGAGAGUGCAGGUGATT against Mrpl39, the z-score was inactive: 0.677. Regarding “GGAUAUUUGCUUCUUUCACTT against A330008L17Rik”, the z-score was inactive: 0.596. To GGCAACAUCAAAGAAAGGATT against Rad51b belongs inactive: -0.0241. Under GGCUCUCCAACUGUAUGAATT against Hexdc stands inactive: 1.53. To GCUCCUACAGAGAAUAAGATT against Eny2 belongs inactive: -1.7; to GGAAGAUACAAGUCUUUUUTT against Akap12, inactive: 1.85; to GCGGCUACGUGUUUGACUATT against Csnk1g2, inactive: -0.735. With GGAGAUUGUGAGAGCCAUGTT against Kcnab3, the z-score is inactive: -0.753. Under GGAAGAUUUUUCAAGAAAGTT against Dcun1d5 stands inactive: 0.386; under GGACUACAUAAACUUGUACTT against Nme5, inactive: -1.03.

As to GGGCUGUCUAAGAAUGCAATT against Nlrp14, the z-score is active: -2.08.

In the case of GGAUGAUGGAGGGAAACUUTT against Fam221a, the z-score was inactive: -0.357. To CCAAGAGAUUGCUAAUUGCTT against Runx1t1 belongs inactive: -0.695. Under GGUGGUAGAACCACUGAAGTT against Pxk stands inactive: 0.673.

Take GGCACUCCUUCUCAGUUGCTT against Chek2: the z-score was inactive: -0.891. To GCAAAUAUUACCUGAAAGUTT against Zbtb48 belongs inactive: 0.0124; to GGCCUUAGUAUUCUGCCUCTT against Nuak1, inactive: 0.395; to GGACCCUCCAACUGUAAAUTT against Meg3, inactive: 0.3. Under CGGCGACUUCUUCAGCUAUTT against Aldh2 stands inactive: 0.774.

Source of the values: PubChem BioAssay AID1508600 (Functional Genomics Laboratory (NCATS/FGL), 2020).
